# This is one part of the list.
# B1: EfCBM33A (Enterococcus faecalis), Q838S1 (protein)
# chain: MKKSLLTIVLAFSFVLGGAALAPTVSEAHGYVASPGSRAFFGSSAGGNLNTNVGRAQWEPQSIEAPKNTFITGKLASAGVSGFEPLDEQTATRWHKTNITTGPLDITWNLTAQHRTASWDYYITKNGWNPNQPLDIKNFDKIASIDGKQEVPNKVVKQTINIPTDRKGYHVIYAVWGIGDTVNAFYQAIDVNIQ
# Tests used:
# Assay in all cases: glycan array binding signal (z-score within array); higher = stronger binding
# Details in all cases: glycan notation: IUPAC condensed, linker removed
# [1] = target: Neu5Ac(a2-6)Gal(b1-4)GlcNAc(b1-2)Man(a1-3)[GlcNAc(b1-4)][Neu5Ac(a2-6)Gal(b1-4)GlcNAc(b1-2)Man(a1-6)]Man(b1-4)GlcNAc(b1-4)GlcNAc
# Procedure, shortened: (§1)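 The binding signal is a Z-score computed within each array and averaged over linkers. Arrays of the same protein sequence at different concentrations or buffers were also averaged together. Data originate from 3228 arrays in the Consortium for Functional Glycomics database, kept only where the protein sequence was available.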
# [2] = target: Neu5Ac(a2-6)Gal(b1-4)GlcNAc(b1-2)Man(a1-3)[Man(a1-6)]Man(b1-4)GlcNAc(b1-4)GlcNAc
# Procedure, shortened: as §1
# [3] = target: Neu5Ac(a2-6)Gal(b1-4)GlcNAc(b1-2)Man(a1-3)[Neu5Ac(a2-3)Gal(b1-4)GlcNAc(b1-2)Man(a1-6)]Man(b1-4)GlcNAc(b1-4)GlcNAc
# Procedure, shortened: as §1
# [4] = target: Neu5Ac(a2-6)Gal(b1-4)GlcNAc(b1-2)Man(a1-3)[Neu5Ac(a2-6)Gal(b1-4)GlcNAc(b1-2)Man(a1-6)]Man(b1-4)GlcNAc(b1-4)GlcNAc
# Procedure, shortened: as §1
# [5] = target: Neu5Ac(a2-6)Gal(b1-4)GlcNAc(b1-2)Man(a1-3)[Neu5Ac(a2-6)Gal(b1-4)GlcNAc(b1-2)Man(a1-6)]Man(b1-4)GlcNAc(b1-4)[Fuc(a1-6)]GlcNAc
# Procedure, shortened: as §1
# [6] = target: Neu5Ac(a2-6)Gal(b1-4)GlcNAc(b1-2)Man(a1-6)Man(b1-4)GlcNAc(b1-4)GlcNAc
# Procedure, shortened: as §1
# [7] = target: Neu5Ac(a2-6)Gal(b1-4)GlcNAc(b1-2)Man(a1-6)[Gal(b1-4)GlcNAc(b1-2)Man(a1-3)]Man(b1-4)GlcNAc(b1-4)GlcNAc
# Procedure, shortened: as §1
# [8] = target: Neu5Ac(a2-6)Gal(b1-4)GlcNAc(b1-2)Man(a1-6)[GlcNAc(b1-2)Man(a1-3)]Man(b1-4)GlcNAc(b1-4)GlcNAc
# Procedure, shortened: as §1
# [9] = target: Neu5Ac(a2-6)Gal(b1-4)GlcNAc(b1-2)Man(a1-6)[Man(a1-3)]Man(b1-4)GlcNAc(b1-4)GlcNAc
# Procedure, shortened: as §1
# [10] = target: Neu5Ac(a2-6)Gal(b1-4)GlcNAc(b1-2)[Neu5Ac(a2-6)Gal(b1-4)GlcNAc(b1-4)]Man(a1-3)[GlcNAc(b1-4)][Neu5Ac(a2-6)Gal(b1-4)GlcNAc(b1-2)[Neu5Ac(a2-6)Gal(b1-4)GlcNAc(b1-6)]Man(a1-6)]Man(b1-4)GlcNAc(b1-4)GlcNAc
# Procedure, shortened: as §1
# [11] = target: Neu5Ac(a2-6)Gal(b1-4)GlcNAc(b1-2)[Neu5Ac(a2-6)Gal(b1-4)GlcNAc(b1-4)]Man(a1-3)[GlcNAc(b1-4)][Neu5Ac(a2-6)Gal(b1-4)GlcNAc(b1-4)Man(a1-6)]Man(b1-4)GlcNAc(b1-4)GlcNAc
# Procedure, shortened: as §1
# [12] = target: Neu5Ac(a2-6)Gal(b1-4)GlcNAc(b1-2)[Neu5Ac(a2-6)Gal(b1-4)GlcNAc(b1-6)]Man(a1-6)[Neu5Ac(a2-6)Gal(b1-4)GlcNAc(b1-2)Man(a1-3)][GlcNAc(b1-4)]Man(b1-4)GlcNAc(b1-4)GlcNAc
# Procedure, shortened: as §1
# [13] = target: Neu5Ac(a2-6)Gal(b1-4)GlcNAc(b1-3)Gal(b1-3)GlcNAc
# Procedure, shortened: as §1
# [14] = target: Neu5Ac(a2-6)Gal(b1-4)GlcNAc(b1-3)Gal(b1-4)GlcNAc
# Procedure, shortened: as §1
# [15] = target: Neu5Ac(a2-6)Gal(b1-4)GlcNAc(b1-3)Gal(b1-4)GlcNAc(b1-2)Man(a1-3)[Neu5Ac(a2-6)Gal(b1-4)GlcNAc(b1-3)Gal(b1-4)GlcNAc(b1-2)Man(a1-6)]GalNAc
# Procedure, shortened: as §1
# [16] = target: Neu5Ac(a2-6)Gal(b1-4)GlcNAc(b1-3)Gal(b1-4)GlcNAc(b1-3)Gal(b1-4)GlcNAc
# Procedure, shortened: as §1
# [17] = target: Neu5Ac(a2-6)Gal(b1-4)GlcNAc(b1-3)Gal(b1-4)GlcNAc(b1-3)Gal(b1-4)GlcNAc(b1-2)Man(a1-3)[Neu5Ac(a2-6)Gal(b1-4)GlcNAc(b1-3)Gal(b1-4)GlcNAc(b1-3)Gal(b1-4)GlcNAc(b1-2)Man(a1-6)]GalNAc
# Procedure, shortened: as §1
# [18] = target: Neu5Ac(a2-6)Gal(b1-4)GlcNAc(b1-3)Gal(b1-4)GlcNAc(b1-3)GalNAc
# Procedure, shortened: as §1
# [19] = target: Neu5Ac(a2-6)Gal(b1-4)GlcNAc(b1-3)Gal(b1-4)GlcNAc(b1-3)[Neu5Ac(a2-6)Gal(b1-4)GlcNAc(b1-3)Gal(b1-4)GlcNAc(b1-6)]GalNAc
# Procedure, shortened: as §1
# [20] = target: Neu5Ac(a2-6)Gal(b1-4)GlcNAc(b1-3)Gal(b1-4)GlcNAc(b1-6)[Gal(b1-3)]GalNAc
# Procedure, shortened: as §1
# [21] = target: Neu5Ac(a2-6)Gal(b1-4)GlcNAc(b1-3)Gal(b1-4)[Fuc(a1-3)]GlcNAc(b1-3)Gal(b1-4)[Fuc(a1-3)]GlcNAc
# Procedure, shortened: as §1
# [22] = target: Neu5Ac(a2-6)Gal(b1-4)GlcNAc(b1-3)GalNAc
# Procedure, shortened: as §1
# [23] = target: Neu5Ac(a2-6)Gal(b1-4)GlcNAc(b1-3)[Neu5Ac(a2-6)Gal(b1-4)GlcNAc(b1-6)]GalNAc
# Procedure, shortened: as §1
# [24] = target: Neu5Ac(a2-6)Gal(b1-4)GlcNAc(b1-6)GalNAc
# Procedure, shortened: as §1
# [25] = target: Neu5Ac(a2-6)Gal(b1-4)GlcNAc(b1-6)[Gal(b1-3)GlcNAc(b1-3)]Gal(b1-4)Glc
# Procedure, shortened: as §1
# [26] = target: Neu5Ac(a2-6)Gal(b1-4)GlcNAc(b1-6)[Gal(b1-3)]GalNAc
# Procedure, shortened: as §1
# [27] = target: Neu5Ac(a2-6)Gal(b1-4)GlcNAc6S
# Procedure, shortened: as §1
# Neu5Ac(a2-6)GalNAc = target: Neu5Ac(a2-6)GalNAc
# Procedure, shortened: as §1
# [28] = target: Neu5Ac(a2-6)GalNAc(b1-4)GlcNAc
# Procedure, shortened: as §1
# [29] = target: Neu5Ac(a2-6)GalNAc(b1-4)GlcNAc6S
# Procedure, shortened: as §1
# [30] = target: Neu5Ac(a2-6)GlcNAc(b1-4)GlcNAc
# Procedure, shortened: as §1
binder,measurement,setting,value
B1,glycan array binding signal (z-score),[1],-0.314
same,glycan array binding signal (z-score),[2],-0.921
same,glycan array binding signal (z-score),[3],-0.548
same,glycan array binding signal (z-score),[4],0.296
same,glycan array binding signal (z-score),[5],-0.076
same,glycan array binding signal (z-score),[6],0.268
same,glycan array binding signal (z-score),[7],-0.487
same,glycan array binding signal (z-score),[8],0.54
same,glycan array binding signal (z-score),[9],0.338
same,glycan array binding signal (z-score),[10],2.16
same,glycan array binding signal (z-score),[11],-0.018
same,glycan array binding signal (z-score),[12],0.103
same,glycan array binding signal (z-score),[13],-0.898
same,glycan array binding signal (z-score),[14],2.76
same,glycan array binding signal (z-score),[15],-0.33
same,glycan array binding signal (z-score),[16],-1.38
same,glycan array binding signal (z-score),[17],1.06
same,glycan array binding signal (z-score),[18],-1.04
same,glycan array binding signal (z-score),[19],0.687
same,glycan array binding signal (z-score),[20],-1.17
same,glycan array binding signal (z-score),[21],1.05
same,glycan array binding signal (z-score),[22],-0.095
same,glycan array binding signal (z-score),[23],1.3
same,glycan array binding signal (z-score),[24],0.504
same,glycan array binding signal (z-score),[25],-0.451
same,glycan array binding signal (z-score),[26],-0.769
same,glycan array binding signal (z-score),[27],-0.224
same,glycan array binding signal (z-score),Neu5Ac(a2-6)GalNAc,-1.22
same,glycan array binding signal (z-score),[28],-1.24
same,glycan array binding signal (z-score),[29],-0.172
same,glycan array binding signal (z-score),[30],-0.597

# 2 entries drawn at random from those above, as already listed:
binder,measurement,setting,value
B1,glycan array binding signal (z-score),Neu5Ac(a2-6)GalNAc,-1.22
same,glycan array binding signal (z-score),[27],-0.224

# Reference: the supplement of paper PMC8728848
